Test results reported in article PMC6386991 (International Journal of Molecular Sciences, 2019).
These are yes or no findings as the source states them, for the method shown.

Sequences of proteins named here, by UniProt entry; tags and fusion partners are left off. Residues count along the entry.
UniProt P22303, residues 52-577: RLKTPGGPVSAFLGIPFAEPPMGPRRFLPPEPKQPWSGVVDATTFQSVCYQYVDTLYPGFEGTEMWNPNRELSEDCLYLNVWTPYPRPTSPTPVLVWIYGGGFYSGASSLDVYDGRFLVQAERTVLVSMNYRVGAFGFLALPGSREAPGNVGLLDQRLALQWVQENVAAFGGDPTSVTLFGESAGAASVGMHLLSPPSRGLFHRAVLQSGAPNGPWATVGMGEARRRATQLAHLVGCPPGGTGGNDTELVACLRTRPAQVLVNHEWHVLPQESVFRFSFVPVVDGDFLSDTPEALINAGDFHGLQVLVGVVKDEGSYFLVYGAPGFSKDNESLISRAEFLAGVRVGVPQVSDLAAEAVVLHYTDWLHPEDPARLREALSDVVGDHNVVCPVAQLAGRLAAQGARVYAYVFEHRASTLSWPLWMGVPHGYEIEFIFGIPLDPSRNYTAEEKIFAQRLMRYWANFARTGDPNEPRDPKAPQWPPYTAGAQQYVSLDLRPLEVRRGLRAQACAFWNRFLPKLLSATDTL
UniProt P27338, residues 1-489: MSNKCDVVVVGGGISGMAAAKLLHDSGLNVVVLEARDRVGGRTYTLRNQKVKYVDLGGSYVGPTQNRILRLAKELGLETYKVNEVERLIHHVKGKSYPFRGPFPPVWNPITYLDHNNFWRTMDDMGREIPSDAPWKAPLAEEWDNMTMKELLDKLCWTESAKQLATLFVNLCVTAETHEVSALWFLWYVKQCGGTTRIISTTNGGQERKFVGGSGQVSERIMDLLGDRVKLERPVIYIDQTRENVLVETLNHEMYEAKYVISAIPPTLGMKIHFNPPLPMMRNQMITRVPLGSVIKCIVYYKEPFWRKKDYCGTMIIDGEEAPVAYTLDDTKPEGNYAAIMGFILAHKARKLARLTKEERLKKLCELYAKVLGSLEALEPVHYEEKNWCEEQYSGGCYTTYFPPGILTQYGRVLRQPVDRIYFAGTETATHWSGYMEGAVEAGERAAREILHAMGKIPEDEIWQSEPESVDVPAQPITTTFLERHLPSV

How the values were obtained:
[1] = molecular target: human acetylcholinesterase (hAChE), aa 52-577, bait from pGBKT7-hAChE (human) (UniProt P22303); assay: two-hybrid; yeast three-hybrid (Y3H): small scale mating (10 mL) of the same bait and preys with hybrid ligand at 10 uM in the mating mixture and in the DDO/X/A plates; blue colony moved to QDO/X/A with 10 uM hybrid ligand, then to QDO/X/A without the ligand
[2] = molecular target: human acetylcholinesterase (hAChE), aa 52-577, bait from pGBKT7-hAChE (human) (UniProt P22303); assay: two-hybrid; Matchmaker Gold Y2H, small scale mating (5 mL) of Y2HGold [bait AChE in pGBKT7] with Y187 [preys in pGADT7]; no hybrid ligand; DDO/X/A agar plates (Aureobasidin A 200 ng/mL, X-alpha-Gal 40 ug/mL), blue colonies as read-out

Substance	binding [1]	binding [2]
human microtubule associated protein tau (MAPT), entire protein aa 1-758, prey from pGADT7-hMAPT (from UniProt P10636-1 1-758)	no binding	no binding
human monoamine oxidase B (MAO B), cytoplasmic domain aa 1-489, prey from pGADT7-hMAO B (from UniProt P27338 1-489) (domain or fragment)	no binding	no binding
